Measurements published in article PMC13570301.
No constants are given. Whether binding was seen depends on the method and setting. Some results given as binding are weak or reduced against the parent protein; the word gives no strength. Sequences can lack the tags named with a protein.

Target: T1, CHIP-myc K30A (human), Q9UNE7
T1 chain: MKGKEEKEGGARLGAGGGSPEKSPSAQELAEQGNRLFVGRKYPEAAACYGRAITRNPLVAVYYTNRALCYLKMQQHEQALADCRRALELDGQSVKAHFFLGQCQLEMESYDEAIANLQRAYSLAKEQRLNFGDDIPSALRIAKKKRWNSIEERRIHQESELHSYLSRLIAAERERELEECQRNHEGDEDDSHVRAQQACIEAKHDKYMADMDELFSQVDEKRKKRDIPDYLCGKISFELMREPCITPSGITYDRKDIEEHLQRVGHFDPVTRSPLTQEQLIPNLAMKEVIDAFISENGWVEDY
Experiment: native gel or EMSA; Blue native PAGE and immunoblot of lysates (Native PAGE sample buffer, 1% digitonin) of transfected COS-7 cells kept at 37 °C or heat-shocked at 42 °C for 2 h; self-association
Details: remark: other sources report otherwise

binding: binds
B1: CHIP-myc K30A, Q9UNE7-1 1-303 (enzyme)
chain: MKGKEEKEGGARLGAGGGSPEKSPSAQELAEQGNRLFVGRKYPEAAACYGRAITRNPLVAVYYTNRALCYLKMQQHEQALADCRRALELDGQSVKAHFFLGQCQLEMESYDEAIANLQRAYSLAKEQRLNFGDDIPSALRIAKKKRWNSIEERRIHQESELHSYLSRLIAAERERELEECQRNHEGDEDDSHVRAQQACIEAKHDKYMADMDELFSQVDEKRKKRDIPDYLCGKISFELMREPCITPSGITYDRKDIEEHLQRVGHFDPVTRSPLTQEQLIPNLAMKEVIDAFISENGWVEDY
